Test results from PubChem BioAssay AID2685 (National Center for Advancing Translational Sciences (NCATS), 2010).
This is one part of the list. Shown are side measurements of this screen, not its main read-out; they come without a call. The list favours compounds with an active or inconclusive main result. Words in brackets tell the shape of the fitted curve; partial curves, single points and poor fits give uncertain potencies.

Assay: qHTS Assay for Lipid Storage Modulators in Drosophila S3 Cells;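 as to cell number change: cells counted by Cell Tracker Red CMTPX staining in the red channel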
Conditions: BODIPY lipid droplet fluorescence, 18-24 h; for cell number change: measured here: cell count max response, cells fed with added oleic acid
Method in brief: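 Drosophila S3 cells got compounds at several concentrations plus oleic acid (400 uM solution). Laser-scanning cytometry with 488 nm excitation read lipid droplets at 500-530 nm and cells at 575-640 nm. Percent activity was relative to 20 uM Triacsin C.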

[1] = measured here: lipid fluorescence (Fed channel) AC50, cells fed with added oleic acid
[2] = measured here: cell number channel AC50, cells fed with added oleic acid

## COc1ccccc1NC(=O)c1cc(=O)[nH]c2ccccc12
  cell number change: -9.97%
[1]
  AC50: 14.6 µM [rising, partial curve]

## COc1cc2c(cc1OC)C(SC)=NC1(CCCC1)C2
  cell number change: -24.7%

## COC(=O)c1ccc(NC(=O)CCCN2C(=O)NC(C)(C)C2=O)cc1
  cell number change: 61.2%
[2]
  AC50: 4.11 µM [falling, single point]
[1]
  AC50: 13 µM [rising, partial curve]

## CNC1=C([N+](=O)[O-])CC([N+](=O)[O-])=C(N2CCNCC2)N1C
  cell number change: -75.5%
[2]
  AC50: 1.84 µM [falling, partial curve, poor fit]

## O=C(c1ccccc1)N1CCCCC(S(=O)(=O)c2ccc3ccccc3c2)C1=O (configuration not stated)
  cell number change: 35.1%
[2]
  AC50: 4.61 µM [rising, single point]
[1]
  AC50: 0.651 µM [falling, partial curve, poor fit]

## O=C(Nc1ccc(NC(=O)c2cccs2)cc1)c1ccc(Br)o1
  cell number change: 106%
[2]
  AC50: 14.6 µM [rising, partial curve, poor fit]
[1]
  AC50: 7.31 µM [rising, partial curve]

## Cc1cc(SCC(=O)OCC(=O)c2c(N)n(C)c(=O)n(C)c2=O)c(C)cc1Br
  cell number change: -22.3%
[1]
  AC50: 1.84 µM [falling, full curve]

## N#Cc1ccccc1OCCOCCNC1CCCC1
  cell number change: 1.34%
[2]
  AC50: 0.366 µM [falling, partial curve, poor fit]

## CCC(OC(=O)c1ccco1)C(=O)NCc1ccc2c(c1)OCO2 (configuration not stated)
  cell number change: 20.8%

## Fc1ccc(-c2nc3n(n2)Cc2ccccc2-3)cc1
  cell number change: 5.37%
[1]
  AC50: 0.731 µM [rising, single point]

## CCCS(=O)(=O)n1nc(-c2ccccc2)cc1N
  cell number change: -6.26%

## S=C(NCCCc1ccccc1)Nc1ccc(Cl)cc1
  cell number change: -46.5%
[2]
  AC50: 16.4 µM [falling, partial curve]
[1]
  AC50: 23.1 µM [falling, partial curve]

## CC1(C)C2CCC(C2)C1(C)NC(=O)CNCC1CCCCC1 (configuration not stated)
  cell number change: -2.84%
[2]
  AC50: 6.51 µM [falling, single point]

## O=C(NCCN1CCN(C(=O)NC2CCCCC2)CC1)NC1CCCCC1
  cell number change: 9.86%
[1]
  AC50: 0.116 µM [falling, single point]

## COc1ccccc1/C=C/CN1CCOCC1
  cell number change: 2.84%
[2]
  AC50: 5.17 µM [falling, single point]

## Cc1ccc(S(=O)(=O)/N=C2/C=C(Sc3ncn[nH]3)C(=O)c3ccccc32)cc1
  cell number change: -40.8%
[2]
  AC50: 14.6 µM [falling, single point]
[1]
  AC50: 8.2 µM [falling, partial curve]

## COc1ccc(CNC(=O)CCNS(=O)(=O)c2ccc(C)cc2)cc1
  cell number change: 60.3%
[2]
  AC50: 18.4 µM [rising, partial curve]

## COCc1cc(=O)n2[nH]c(C)cc2n1
  cell number change: -20.5%
[2]
  AC50: 0.13 µM [falling, full curve, poor fit]
[1]
  AC50: 29.1 µM [falling, partial curve]

## CSc1nnc(-c2ccccc2Cl)n1N
  cell number change: 4.17%
[1]
  AC50: 23.1 µM [falling, single point]

## CCc1nnc(NC(=O)CSc2nnc(-c3ccncc3)n2Cc2ccccc2)s1
  cell number change: 2.68%

## CCOC(=O)N1CCN(C(=O)CSc2nnc(-c3ccc(Cl)s3)o2)CC1
  cell number change: 11.4%
[2]
  AC50: 2.59 µM [rising, single point]
[1]
  AC50: 29.1 µM [rising, single point]

## Cc1cc(NC(=O)CCN2CCC(C)CC2)ccc1Br
  cell number change: 0.794%
[1]
  AC50: 0.58 µM [rising, single point]

## O=C(NCc1ccccc1Cl)C1CCCN(S(=O)(=O)c2cccc3nonc23)C1 (configuration not stated)
  cell number change: 84.1%
[2]
  AC50: 18.4 µM [rising, single point]
[1]
  AC50: 29.1 µM [rising, single point]

## COc1ccc(NS(=O)(=O)c2ccc(F)c(Cl)c2)cn1
  cell number change: 15.2%
[1]
  AC50: 29.1 µM [falling, partial curve, poor fit]

## CC1CCCCN1C(=S)Nc1ccc2nc3n(c(=O)c2c1)CCCCC3 (configuration not stated)
  cell number change: 30.9%
[2]
  AC50: 5.17 µM [rising, partial curve, poor fit]
[1]
  AC50: 6.51 µM [rising, single point]

## Cc1nc2ccccc2n1CC(=O)N/N=C/c1cccs1
  cell number change: 12.5%
[1]
  AC50: 4.61 µM [falling, single point]

## CC1CCC2(CC1)NC(=O)N(CC(=O)Nc1cccnc1Cl)C2=O (configuration not stated)
  cell number change: 2.22%
[1]
  AC50: 0.0731 µM [falling, full curve, poor fit]

## CCCCn1c(N)c(N(CC(C)C)C(=O)c2cccc(S(=O)(=O)N(C)c3ccc(C)cc3)c2)c(=O)[nH]c1=O
  cell number change: 13.5%
[1]
  AC50: 0.731 µM [falling, full curve]

## Cc1ccccc1NC(=O)CSc1nc(-c2cccs2)nc2cc(=O)[nH]n12
  cell number change: 30.5%
[2]
  AC50: 13 µM [rising, partial curve, poor fit]
[1]
  AC50: 13 µM [rising, partial curve, poor fit]

## C#CCNC(=O)c1ccc(OCc2ccccc2)cc1Cl
  cell number change: 19.8%
[1]
  AC50: 29.1 µM [rising, single point]

## CCn1c(CCNC(=O)c2cccs2)nnc1SCC(=O)NC1CCCCC1
  cell number change: -13.9%
[1]
  AC50: 18.4 µM [falling, single point]

## CCOc1ccc(N2C(=O)CC(N(Cc3ccco3)C(=O)CCC(=O)O)C2=O)cc1 (configuration not stated)
  cell number change: 16.6%

## CC(NC(=O)c1ccc(-c2cc(C(F)(F)F)ccc2Cl)o1)c1ccccc1 (configuration not stated)
  cell number change: 6.78%

## O=C(Nc1ccc(S(=O)(=O)N2CCCCC2)cc1)C1CC(=O)N(c2ccc(Cl)cc2)C1 (configuration not stated)
  cell number change: 26.1%
[1]
  AC50: 23.1 µM [falling, single point]

## COc1ccccc1NC(=O)CN1C(=O)NC(C)(C)C1=O
  cell number change: -9.64%
[1]
  AC50: 0.0731 µM [falling, full curve]

## COc1ccc(NC(=O)C2CCCN2C(=O)Nc2ccc(OC)cc2)cc1 (configuration not stated)
  cell number change: 6.85%
[1]
  AC50: 29.1 µM [rising, single point]

## COc1ccccc1OCC(=O)Nc1cc(S(=O)(=O)N2CCCCC2)ccc1N1CCCCC1
  cell number change: 9.44%
[1]
  AC50: 2.91 µM [rising, single point]

## Cc1ccc(OCC(=O)N2CC(C)OC(C)C2)c([N+](=O)[O-])n1 (configuration not stated)
[2]
  AC50: 0.103 µM [rising, single point]
[1]
  AC50: 0.13 µM [rising, single point]

## CC(=O)Oc1ccc2c(=O)c(-c3nc4ccccc4s3)coc2c1
  cell number change: 28.5%

## O=[n+]1c2c(n([O-])c3c1CCCC3)CCCCC2
  cell number change: 6.65%
[1]
  AC50: 0.00461 µM [falling, full curve, poor fit]

## O=C(CSc1nc2ccccc2c(=O)n1-c1ccc(OC(F)F)cc1)NCc1cccs1
  cell number change: -3.08%
[1]
  AC50: 6.51 µM [rising, single point]

## CCOC(=O)C[N+]1(C)CCN(C(C)=O)CC1
  cell number change: -17.4%
[2]
  AC50: 2.91 µM [falling, single point]

## CN(C)C1=NCCN1CC1CCCC1
  cell number change: -33.5%
[2]
  AC50: 0.58 µM [falling, full curve]
[1]
  AC50: 0.651 µM [falling, full curve]

## Cc1ccc(CCNC(=O)CNC(=S)N(Cc2ccccc2)Cc2cccnc2)cc1
  cell number change: -4.42%
[2]
  AC50: 2.06 µM [falling, single point]

## Cc1cccc(N2CCN(Cc3nc(-c4cccc(Oc5ccccc5)c4)oc3C)CC2)n1
  cell number change: -25.1%
[1]
  AC50: 1.46 µM [falling, partial curve]

## CNC(=S)N/N=C/c1c(C)nn(-c2cccc(Cl)c2)c1Cl
  cell number change: -23.7%
[1]
  AC50: 20.6 µM [falling, single point]

## CCC(C)(C)NC(=O)C(c1ccc(OC)cc1)N(C(=O)CCC(=O)Nc1cc(C)on1)C(C)(C)C (configuration not stated)
  cell number change: 5.22%
[1]
  AC50: 6.51 µM [rising, single point]

## COc1ccccc1-c1cc(C(F)(F)F)nc(S(=O)(=O)CCCC(=O)NCc2ccc(F)cc2)n1
  cell number change: -48.8%
[2]
  AC50: 7.31 µM [falling, partial curve]

## O=C(Nc1ccc2ccccc2n1)c1ccccc1Br
  cell number change: -24.6%
[1]
  AC50: 23.1 µM [rising, single point]

## Cc1nn(Cc2cccc(C(=O)Nn3cc([N+](=O)[O-])cn3)c2)c(C)c1[N+](=O)[O-]
  cell number change: 33.5%
[2]
  AC50: 9.2 µM [rising, partial curve]

## Cc1nn(Cc2ccccc2Cl)c(C)c1NC(=O)c1ccn(C)n1
  cell number change: 4.63%
[1]
  AC50: 0.092 µM [rising, full curve, poor fit]

## CCc1ccc(NC(=O)Cn2cnc([N+](=O)[O-])c2)cc1
  cell number change: 14.6%
[1]
  AC50: 29.1 µM [rising, single point]

## CCOc1ccccc1NC(=O)CCN1CCN(S(=O)(=O)c2ccc(OC)cc2)CC1
  cell number change: 88.9%
[2]
  AC50: 16.4 µM [rising, single point]

## Cc1ccc(C(=O)OCC(=O)c2c[nH]c3ccccc23)cc1
  cell number change: -5.68%
[2]
  AC50: 4.61 µM [rising, single point]
[1]
  AC50: 6.51 µM [rising, single point]

## COc1ccc(Cn2nnc3c(=O)[nH]c(C4CCN(S(=O)(=O)c5ccc(C)cc5)CC4)nc32)cc1
[1]
  AC50: 0.206 µM [falling, full curve]

## Cc1cc(C)n2nc(SCc3cccc(S(=O)(=O)N(C)C)c3)nc2n1
  cell number change: -0.704%
[1]
  AC50: 0.58 µM [rising, single point]

## COc1ccc(CCOC(=O)c2ccc(N)c([N+](=O)[O-])c2)cc1
  cell number change: -22.3%

## CC1=CC(c2ccccc2)n2nnnc2N1 (configuration not stated)
  cell number change: -9.38%
[1]
  AC50: 0.00461 µM [falling, full curve, poor fit]

## COc1cc(=O)n(C)c2c(OCC(O)C(C)(C)O)cccc12 (configuration not stated)
  cell number change: 50%
[2]
  AC50: 20.6 µM [rising, single point]
[1]
  AC50: 8.2 µM [rising, partial curve]
